From PubChem BioAssay AID504467 (National Center for Advancing Translational Sciences (NCATS), 2011)
About 7,700 (2.3%) of roughly 330,000 compounds were called active. Inconclusive results, whose numbers are uncertain, are shown with a selection of clear calls. Calls come from the whole dose curve; as a rule, active = well fitted inhibition curve with a large enough effect; inconclusive = small, poorly fitted or top-dose-only effect, or effect the other way; inactive = flat fitted curve, though single readings scatter. Potencies of inconclusive entries are doubtful fits and often do not repeat.
Potency is the fitted concentration of half-maximal effect.

Experiment: qHTS screen for small molecules that inhibit ELG1-dependent DNA repair in human embryonic kidney (HEK293T) cells expressing luciferase-tagged ELG1; note: nearly all actives have a fitted effect of over 55% in size
Settings: HEK293T ELG1-luciferase reporter, luminescence, 16 h, DNA damage induced by 5-fluorouridine; series mostly up to 46.1 µM
Method in brief: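 DMSO vehicle served as the neutral condition. Each well held 2,000 cells given 5-fluorouridine plus compound; after 16 hr at 37 °C/5% CO2, ONE-Glo was added and luciferase measured 30 min later.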
In the case of `O=C(CCC(=O)N1CCN(c2ccccc2F)CC1)N1CCN(c2ccc(F)cc2)CC1`, the Potency is reported as inconclusive: 23.1 µM [inhibitor, single point]. In the case of `COc1ccc(SCCN2CC[C@@H](O)CCC2=O)cc1`, the Potency is reported as inconclusive: 11.6 µM [activator, single point]. With `COc1ccc(C(C(=O)NCc2ccccc2)N(Cc2ccco2)C(=O)c2snc(C(N)=O)c2N)cc1OC` (centres undefined) the Potency was active: 14.6 µM. In the case of `COc1ccc(NC(=O)CN2CCC(C(=O)c3ccc(C)cc3)CC2)c(OC)c1`, the Potency is reported as inconclusive: 23.1 µM [inhibitor, partial curve, poor fit]. In the case of `Cc1cc(OCC(O)CNC(C)(C)C)ccc1Cl` (centres undefined), the Potency is reported as “inactive”. With `CC1=NN(c2ccccc2)C(=O)/C1=C\c1cc(C)n(-c2cccnc2)c1C` the Potency was “inactive”. For `COc1ccc(CNc2nc(=S)[nH]c3cc(OC)c(OC)cc23)cc1`, the Potency was “inactive”. With `O=C1Nc2ccccc2S/C1=C/Nc1cccc(Cl)c1` the Potency was inconclusive: 20.6 µM [activator, partial curve]. With `Cc1ccc(NC(=O)COC(=O)c2ccc3c(c2)NC(=O)C2CCCN32)cc1C` (centres undefined) the Potency was inconclusive: 29.1 µM [inhibitor, single point]. In the case of `O=c1[nH]cnc2c1c(-c1ccccc1)cn2-c1cccc(Cl)c1`, the Potency is reported as inconclusive: 32.6 µM [inhibitor, single point]. In the case of `N#CCSc1nc2c(cc1C#N)CCCCCC2`, the Potency is reported as inconclusive: 11.6 µM [activator, partial curve, poor fit]. With `C/C(=N\O)c1ccc2c3ccccc3n(C)c2c1` the Potency was inconclusive: 9.2 µM [activator, partial curve]. For `COc1ccc(-c2nc(C#N)c(NCCc3ccccc3)o2)cc1`, the Potency was inconclusive: 10.3 µM [activator, partial curve]. For `Cc1ccc(NC(=O)CCC(=O)N/N=C/c2ccc(O)cc2)cc1`, the Potency was inconclusive: 29.1 µM [activator, partial curve, poor fit]. With `CCc1ccc2nc(N3CCN(C(=O)C(C)(C)C)CC3)sc2c1` the Potency was “inactive”. With `N#C/C(=C/c1ccc(N2CCOCC2)o1)c1nc2ccccc2[nH]1` the Potency was inconclusive: 1.3 µM [activator, partial curve]. With `COc1ccc(CNC(=O)CNC(=O)[C@@H]2Cc3ccccc3CN2)cc1` the Potency was inconclusive: 20.6 µM [activator, partial curve, poor fit]. For `NNC(=O)c1ccc2ccccc2n1`, the Potency was inconclusive: 1.16 µM [inhibitor, full curve, poor fit]. With `Nc1nc2n(n1)C(c1cccs1)CC(c1ccc(F)cc1)N2` (centres undefined) the Potency was “inactive”.
